# Results are given in words; binding and its absence hold for the method and conditions named. Some entries that bind do so weakly or less than the wild type.
# T1: Fz8-CRD (UniProt Q9H461)
# T1 sequence (fluorescence-conjugated, looked up): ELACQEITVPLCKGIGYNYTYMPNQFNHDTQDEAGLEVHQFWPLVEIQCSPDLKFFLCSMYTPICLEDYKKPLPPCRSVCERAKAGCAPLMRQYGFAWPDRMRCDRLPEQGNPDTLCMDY
# Key:
# Fz8-CRD [1] = biological target: T1, Fz8-CRD; assay: yeast surface titrations (approximate Kd's, not given)
# Fz8-CRD [2] = biological target: T1, Fz8-CRD; assay: yeast surface display, fluorescence-conjugated Fz8-CRD
Binder,binding (Fz8-CRD [1]),binding (Fz8-CRD [2])
Fz27-B12 (designed binder) MGVSFSEVMGKQKDEQAREQLKEGMIKIEEQGKKLSETRTQEELQKYVAAVATFALQAGFLGPNLEERRGFNRRGKEEIGKISGEVYLKLLDLKKAVRAKEKKGLDILNMVGEIKGTLERVYA,binds,binds
Fz27 (designed binder) MGVSFSEVMGKQKDEQAREQLKEGMKKIEEQGKKLSETRTQEELQKYAAAVAAFAAAAGFLGKNLEERRGFNRRGKEEIGKISGEVYKKLLDLKKAVRAKEKKGLDILNMVGEIKGLLERIYA,–,binds

# — patent publication US20210403578A1
